Library screening results

Chains of the proteins cited; added tags and fusions are not shown.
UniProt E9BF75, entry or part of it: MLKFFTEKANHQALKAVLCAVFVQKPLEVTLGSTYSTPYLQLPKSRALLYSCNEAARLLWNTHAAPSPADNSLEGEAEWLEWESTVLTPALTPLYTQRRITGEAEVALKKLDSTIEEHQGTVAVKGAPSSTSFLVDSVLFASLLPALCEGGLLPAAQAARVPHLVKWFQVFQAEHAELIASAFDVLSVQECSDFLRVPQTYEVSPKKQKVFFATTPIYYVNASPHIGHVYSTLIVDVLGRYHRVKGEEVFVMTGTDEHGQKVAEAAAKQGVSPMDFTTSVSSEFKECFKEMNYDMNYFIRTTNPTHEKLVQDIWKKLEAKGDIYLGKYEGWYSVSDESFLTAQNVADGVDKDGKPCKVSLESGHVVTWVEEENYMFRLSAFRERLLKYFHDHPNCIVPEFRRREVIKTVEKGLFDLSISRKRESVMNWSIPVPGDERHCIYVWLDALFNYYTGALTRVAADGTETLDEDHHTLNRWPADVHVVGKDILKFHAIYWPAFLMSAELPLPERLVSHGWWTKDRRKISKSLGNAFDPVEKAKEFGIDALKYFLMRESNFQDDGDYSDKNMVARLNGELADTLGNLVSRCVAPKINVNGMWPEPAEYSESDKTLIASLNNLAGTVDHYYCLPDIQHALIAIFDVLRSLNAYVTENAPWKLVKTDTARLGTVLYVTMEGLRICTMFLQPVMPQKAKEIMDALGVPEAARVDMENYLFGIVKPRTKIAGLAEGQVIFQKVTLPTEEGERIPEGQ

The values are deposited in ChEMBL (CHEMBL3988442, “University of Dundee, Small-Polar-MMV Screening Library” (2021)).

A: 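Primary screen of methionyl-tRNA synthetase; the read-out is not stated. Target: Methionyl-tRNA synthetase (putative), Leishmania donovani (UniProt E9BF75). The test concentration is not given. The values are filed as inhibition. About 68,000 compounds were tested under these conditions; 0.035% (about 24) showed 50% or more at least once.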
B: 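Assay on Mycobacterium tuberculosis, filed only as a heat shock assay from Cornell; the read-out is not stated. The concentration is filed as 10 mM, unlikely as a test dose, so the dose is not known. Direction is inferred from retests: higher values go with stronger inhibition. Size under these conditions: about 69,000 compounds, about 930 of them at 50% or above in at least one test.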

Results are percentages, as filed. How 0% and 100% were set is not recorded. Most values in the screen are low, and negative values occur. Compounds were drawn at random from those tested, without regard to their results.

* O=C(NCC(F)(F)F)C(c1cccnc1)N1CCOCC1 (stereo not drawn) : A: 10.76%; B: 9.478%
* O=C(c1coc(-c2ccccc2)n1)N1CCCC1 : A: 5.136%; B: -90.73%
* CC(C)Nc1cccc(CNC(=O)N2CCC(N3CC=CC3)C2)c1 (stereo not drawn) : A: 4.7%; B: -7.381%
* Cc1cccnc1CN(C)C(C(=O)O)c1ccc(-c2ccn[nH]2)cc1 (stereo not drawn) : A: 17.1%; B: 46.05%
* COc1ccc(CN2CCc3nnc(COCCN(C)C)n3CC2)cc1.O=C(O)C(F)(F)F.O=C(O)C(F)(F)F : B: -17.58%
* O=C(O)C(F)(F)F.O=C(O)C(F)(F)F.[H][C@@]12OCCN(C3CCC3)[C@@]1([H])CC[C@@H]2Oc1cccnc1 : B: -41.43%
* Cn1cc(C(=O)N2CCCC(Cc3cncc4ccccc34)C2)cn1 (stereo not drawn) : A: 18.71%; B: -0.355%
* CCN(C(=O)CN1CCn2c(nnc2C2CC2)C1)C1=CCCCC1 : A: 16.38%; B: 11.13%
* CC(C)N1CCC(c2ccnc3c(C(=O)N4CCOCC4)ncn23)CC1 : A: 18.84%; B: -8.938%
* [H][C@@]12CCN(S(=O)(=O)CC)[C@]1([H])CC[C@@H](c1nc(C)no1)O2 : B: -18.57%
* CCOc1cccc(CNC(=O)CN2CCC3(CCOC3)C2)c1 (stereo not drawn) : A: 7.829%; B: -16.38%
* Cc1nocc1C(=O)N1CCc2c(CN(C)C(C)C)n[nH]c2C1 : A: 19.5%; B: -1.423%
* CS(=O)(=O)c1snnc1C1CCCN(Cc2ccncc2)C1 (stereo not drawn) : A: 11.98%; B: 3.727%
* [H][C@]12C[C@H](NC(=O)c3cc[nH]n3)[C@@]1([H])CN(S(=O)(=O)c1ccc(C)cc1)C2 : B: -18.47%
* CC1CCc2nc(O)c(C(=O)NCc3ccccn3)cc2C1 (stereo not drawn) : A: 13.77%; B: 10.8%
* CCN1CCC(CC(=O)NCC(O)c2cccc(OC)c2)CC1 (stereo not drawn) : A: 8.193%; B: 93.38%
* CCOC(=O)NC(=O)CSC(C)c1ccccc1F (stereo not drawn) : A: 20.53%; B: 9.479%
* CC(C)CC(C)N(C)Cc1nnc(-c2ccco2)o1 (stereo not drawn) : A: -11.8%; B: 16.57%
* CCn1c(C)cc(C(=O)N2CCC(Nc3cccnn3)CC2)c1C : A: 19.76%; B: 4.186%
* O=C(c1cnc(Nc2ccccc2)nc1)N1CCC2(CCNCC2)CC1 : A: 5.974%; B: 35.73%
* CCOc1ccccc1-n1c(C2CC(=O)N(C)C2)n[nH]c1=O (stereo not drawn) : A: 16.72%; B: -33.12%
* [H][C@]12CC[C@]([H])(CN(C3Cc4ccccc4C3)C1)N(C(=O)CNC(N)=O)C2 : B: 13.55%
* CN(C)C(=O)NC1COC2(CCN(Cc3ccc(N(C)C)cc3)CC2)C1 (stereo not drawn) : A: 21.27%; B: 3.915%
* COc1ccc(CNC(Cn2cncn2)c2ccccc2)cc1O (stereo not drawn) : A: 9.926%; B: 3.563%
* Cc1nc(C2CCCN2C(=O)Cc2cccc(F)c2)nc(O)c1C (stereo not drawn) : A: 2.572%; B: -13.68%
* Cc1ccc(C(O)CNC(=O)NCc2csc(C)n2)cc1 (stereo not drawn) : A: 26.26%; B: -6.127%
* CCCn1[nH]c(CNc2ccccc2)nc1=O : A: 9.065%; B: 6.225%
* COc1cccc(CC(=O)N2CCC(Cc3nnc(SC)n3C)CC2)c1 : A: 11.17%; B: 29.26%
* CC(=O)c1cccc(NC(=O)N(CCO)C2CCc3ccccc32)c1 (stereo not drawn) : A: 12.54%; B: -0.7675%
* CC(NCc1cccc2c1OCCO2)c1cc2c(cc1Br)OCCO2 (stereo not drawn) : A: 12.94%; B: 27.38%
* O=C(NCCCN1CCOCC1)c1ccnc(OCc2ccccc2)c1 : A: 7.971%; B: 23.16%
* O=C(c1cccnc1)N1CCOC(Cc2ccccc2Cl)C1 (stereo not drawn) : A: 7.558%; B: -5.926%
* Cc1cnn(CC2CCCN2c2nn3cc(C)nc3s2)c1 (stereo not drawn) : A: 13.19%; B: -4.129%
* Cc1noc(C)c1CNCC1COCc2c(-c3ccsc3)nnn2C1.O=C(O)C(F)(F)F (stereo not drawn) : B: -13.05%
* CN1CCOC(C)(C(=O)Nc2nccs2)C1 (stereo not drawn) : A: -6.854%; B: -11.26%
* CC(C)N(C)Cc1nnc2n1CCCN(S(=O)(=O)C1CC1)C2.O=C(O)C(F)(F)F : B: 24.28%
* CC(=O)NC[C@H]1OC[C@@H](NC2CCC(F)(F)CC2)[C@@H]1O : A: 7.797%; B: -4.384%
* Cc1ccc(N2CCCN(C(=O)CCC3CCCO3)CC2)nn1 (stereo not drawn) : A: 17.22%; B: 0.2732%
* CC(C)N1CCCCC1c1cncc(Cl)n1 (stereo not drawn) : A: 9.006%; B: -18.33%
* CCOc1ccnc(N2CCN(C(=O)c3ccoc3C)CC2)n1 : A: 17.75%; B: -20.45%
* O=C(CCN1CCCN(c2nccs2)CC1)NCC1CCCCC1 : A: 17.48%; B: 0.6887%
* Cc1ccc(C(=O)N2CCN(C(=O)C(C)n3ccnc3)CC2)cc1F (stereo not drawn) : A: 12.15%; B: -0.423%
* O=C(CN1CCOC1=O)N(Cc1ccccc1)Cc1nccs1 : A: 14.36%; B: -14.62%
* O=C(c1ccco1)N1CCCC(c2cc(C(F)(F)F)[nH]n2)C1 (stereo not drawn) : A: 13.14%; B: -15.03%
* Cn1cc(-c2nnn3c2COC(CNCc2ccccn2)C3)cn1 (stereo not drawn) : A: -0.625%; B: -43.13%
* CCc1nc(NCCc2c(C)nn(CC)c2C)c2cnn(C)c2n1 : A: 15.23%; B: -8.959%
* O=c1[nH]nc(CNc2cncc(Br)c2)[nH]1 : A: 15.12%; B: -19.26%
* Cl.c1nc(CCC2CCCCN2)cc(N2CCCC2)n1 (stereo not drawn) : B: -5.319%

Repeated from the top, 3 entries:

{"compound": "O=C(NCC(F)(F)F)C(c1cccnc1)N1CCOCC1", "stereo": "stereo not drawn", "A": 10.76, "B": 9.478}
{"compound": "O=C(c1coc(-c2ccccc2)n1)N1CCCC1", "A": 5.136, "B": -90.73}
{"compound": "CC(C)Nc1cccc(CNC(=O)N2CCC(N3CC=CC3)C2)c1", "stereo": "stereo not drawn", "A": 4.7, "B": -7.381}